The values are deposited in ChEMBL (CHEMBL3988442, “University of Dundee, Small-Polar-MMV Screening Library” (2021)).

By UniProt entry, the sequences of proteins in these tests, tags left out.
UniProt E9BF75, entry or part of it: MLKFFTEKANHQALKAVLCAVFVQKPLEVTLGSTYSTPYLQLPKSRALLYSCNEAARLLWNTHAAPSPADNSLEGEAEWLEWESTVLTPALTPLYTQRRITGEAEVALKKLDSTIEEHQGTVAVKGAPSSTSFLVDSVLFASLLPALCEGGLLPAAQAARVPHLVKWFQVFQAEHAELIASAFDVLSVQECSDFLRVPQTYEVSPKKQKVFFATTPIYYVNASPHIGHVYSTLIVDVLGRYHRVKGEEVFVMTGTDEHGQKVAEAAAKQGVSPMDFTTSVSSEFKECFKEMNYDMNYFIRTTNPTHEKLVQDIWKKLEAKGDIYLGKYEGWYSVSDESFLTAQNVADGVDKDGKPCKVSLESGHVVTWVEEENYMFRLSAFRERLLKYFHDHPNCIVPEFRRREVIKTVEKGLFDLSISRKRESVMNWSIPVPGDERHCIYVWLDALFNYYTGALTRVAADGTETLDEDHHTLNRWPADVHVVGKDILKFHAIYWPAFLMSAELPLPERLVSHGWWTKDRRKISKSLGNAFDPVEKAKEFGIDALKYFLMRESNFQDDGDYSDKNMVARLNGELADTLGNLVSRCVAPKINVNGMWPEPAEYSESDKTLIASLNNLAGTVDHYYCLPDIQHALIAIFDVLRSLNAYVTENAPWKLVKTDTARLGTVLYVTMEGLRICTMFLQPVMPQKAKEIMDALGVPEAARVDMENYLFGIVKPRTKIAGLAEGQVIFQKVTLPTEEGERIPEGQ

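Primary screen of methionyl-tRNA synthetase; the read-out is not stated. Target: Methionyl-tRNA synthetase (putative), Leishmania donovani (UniProt E9BF75). The test concentration is not given. Values are per cent inhibition. Size under these conditions: about 68,000 compounds, about 24 of them at 50% or above in at least one test.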

Results are percentages, as filed. The controls that fix the scale are not given in the record; negative values are as filed. This is an unselected part of the compounds tested.

SMILES	Inhibition
COCCN1Cc2ccccc2C2(CCN(C(=O)c3ccno3)CC2)C1	7.397%
CCn1ncc(-c2cc(C(F)F)n3nc(CCC(=O)O)nc3n2)c1C	-1.892%
CC(C)(C)n1ncc2c1NC(=O)CSC2c1ccc2c(c1)OCO2 (stereo not drawn)	9.632%
Cn1c(NCCN2CCCCCC2)c(C#N)c(=O)n(C)c1=O	4.178%
COc1ccc(-c2cc(N)ccn2)c(OC)c1OC	13.17%
Cc1nc(C)c(CC(=O)Nc2nc(C)c(C)s2)c(=O)[nH]1	13.68%
CCc1ccc(C(=O)N2CC(C(=O)NC(C)C)C3(CCOCC3)C2)cc1 (stereo not drawn)	21.04%
Clc1ccc(C2(CNC3=NCCN3)CCCC2)cc1	5.415%
CCCS(=O)(=O)c1ncc(CN2CCC(CO)CC2)n1CC1CCCO1 (stereo not drawn)	11.5%
Cc1nn(C)c(N(C)C)c1CNCc1ccc(C(=O)N(C)C)cc1	22.4%
CCN1CCN(c2ccc(CNC(=O)c3cnn(C)c3C)cn2)CC1	16.47%
Cc1cc(C)nc(N(C)CCn2ccnc2C)n1	9.206%
CN(C)CCN(Cc1cccnc1)C(=O)c1ccn(-c2ccccc2)n1	8.052%
CC(C)(C)OC(=O)N1CCC(NC2CCS(=O)(=O)C2)CC1 (stereo not drawn)	11.68%
Cc1ccccc1NC(=O)CNC(C)COc1ccccc1 (stereo not drawn)	16.49%
O=C(c1ccoc1)N1CCCn2nnc(COCC3CC3)c2C1	9.341%
Cc1cc2c(o1)CC(C)(C)CC2NC(=O)CNC(=O)C1CC1 (stereo not drawn)	13.12%
CN(CCc1ccccn1)C(=O)c1cccs1	11.15%
CC(C)C(Sc1nnnn1-c1ccccc1)C(=O)NCc1cccnc1 (stereo not drawn)	10.93%
CC(C)c1nnc(CCC(=O)N2CCOC(c3cnccn3)C2)o1 (stereo not drawn)	15.43%
CC(CNC(=O)c1cc(C2CC2)nc2c1cnn2C)Cn1cccn1 (stereo not drawn)	17.03%
COc1ccnc(N2CCN(C(=O)c3csc(C(C)C)n3)CC2)n1	7.807%
CN(Cc1ccccc1)CC1CC2(CO1)CN(Cc1nccs1)C2 (stereo not drawn)	12.77%
Cc1n[nH]c(C2CN(C(=O)c3cc(C)sc3C)CCO2)n1 (stereo not drawn)	13.83%
Cc1cc(C(=O)N2C[C@H]3CC[C@@H]2CN(C(=O)c2ccncc2)C3)cs1	11.17%
CCOc1ccc(Cl)c(C(=O)N2CCCSCC2)n1	11.11%
O=C(C1CCCC1)N1C[C@@H]2CCN(c3cccnc3)C[C@@H]2C1	7.302%
CC(C)n1cc(CN2CCCN(C(=O)c3ccc[nH]3)CC2)cn1	19.05%
Cn1nc(CN2CCCCC2)c2c1CN(C(=O)Nc1cccc(F)c1)C2	1.742%
CCC(=O)NCc1cc(Br)ccc1OC(F)F	14.63%
O=C(Nc1nc(-c2ccccc2)ns1)N1CCC(F)CC1	9.966%
Cc1cccc(N2Cc3nc(=O)n(Cc4cccc(F)c4)n3C2=O)c1	10.08%
Cc1cc(C)n(C2CCCN(C(=O)Cn3ccc(=O)n(C)c3=O)C2)n1 (stereo not drawn)	9.669%
Cn1ccnc1CN1CCN(CCOc2ccccc2C#N)CC1	7.087%
CS(=O)(=O)N1CCCC12CCCN(C(=O)c1ccc3[nH]ccc3c1)C2 (stereo not drawn)	3.78%
COCCN(Cc1cccnc1)S(=O)(=O)c1cccc(F)c1F	-3.183%
Cc1cc(C(F)(F)F)n2nc(C3CCCN3C3CCSCC3)cc2n1 (stereo not drawn)	12.11%
CC(=O)Nc1ccc(SCC(O)COCc2ccco2)cc1 (stereo not drawn)	10.78%
Cc1ccc(C(NC(=O)CC2CCN(C(C)C)CC2)C(=O)O)cc1 (stereo not drawn)	13.41%
O=C(NC1CCN(CC2CC2)C1)c1ccc(N2CCC(O)CC2)cc1 (stereo not drawn)	6.15%
CNS(=O)(=O)c1ccc(CN2CCCC2c2ccc(F)cc2)cc1 (stereo not drawn)	20.14%
Cc1nc(N2CCCN(C(=O)c3ccsc3)CC2)c2cnn(C)c2n1	21.11%
Cc1noc(CN(Cc2cccc(C#N)c2)Cc2ccco2)n1	4.42%
COCCN(C)C[C@@H]1CN(C(=O)c2ccc3c(c2)OCO3)C[C@@H]1CO	12.96%
CCn1cnnc1C1CCN(C(=O)c2ccc3ccccc3n2)CC1	23.66%
Cn1cccc1C(=O)NCc1cn2c(n1)CN(C(=O)c1ccsc1)CC2	13.74%
Cn1cc(NC(=O)C2CC(=O)N(c3n[nH]c4cccc(F)c34)C2)cn1 (stereo not drawn)	10.61%
CC(c1ccon1)N(C)C(=O)C1CCN(C(=O)C2CCC2)CC1 (stereo not drawn)	13.19%
CO[C@H]1CC[C@H]2[C@H]1OCCN2CCOCc1ccccc1	10.64%
CC(C)c1cc(C(=O)N2CCCC2c2nc(-c3ccccc3)no2)[nH]n1 (stereo not drawn)	6.593%
CCN(CCc1ccccc1)Cn1nc(C)c2c(C)onc2c1=O	15.69%
COc1ccccc1CC(C)(C)NC(=O)CC(F)(F)F	23.63%
CCN1C(=O)C2(CCN(CCN(C)C)CC2)c2ccccc21	10.56%
Cc1cc(N2CCCC(O)(CN(C)C(=O)CCN)C2)c2cnccc2n1 (stereo not drawn)	3.459%
CN1CCN(C2CCN(Cc3noc(C4CC4)n3)CC2)C1=O	2.29%
O=C1CCC(C(=O)N2CCOC(Cc3ccc(F)cc3)C2)=NN1 (stereo not drawn)	14.63%
O[C@H]1CN(Cc2ccnc(N3CCCC3)n2)CC[C@@]12CCCO2	5.249%
CCOCCN1Cc2ncn(C)c2C(COCC2CCOCC2)C1 (stereo not drawn)	18.73%
O=C1N(CC2CC2)C(c2c[nH]nc2-c2cccnc2)NC12CCCC2 (stereo not drawn)	7.143%
Cn1cc(CN2Cc3cn(C)nc3C(COCC3CC3)C2)cn1 (stereo not drawn)	12.38%

The first 5 entries again:

| SMILES | Inhibition |
|---|---|
| `COCCN1Cc2ccccc2C2(CCN(C(=O)c3ccno3)CC2)C1` | 7.397% |
| `CCn1ncc(-c2cc(C(F)F)n3nc(CCC(=O)O)nc3n2)c1C` | -1.892% |
| `CC(C)(C)n1ncc2c1NC(=O)CSC2c1ccc2c(c1)OCO2` (stereo not drawn) | 9.632% |
| `Cn1c(NCCN2CCCCCC2)c(C#N)c(=O)n(C)c1=O` | 4.178% |
| `COc1ccc(-c2cc(N)ccn2)c(OC)c1OC` | 13.17% |